37 targets from the supplement of paper PMC11732987, “Enantioselective OTUD7B fragment discovery through chemoproteomics screening and high-throughput optimisation” (Communications Chemistry, 2025) can be followed below.

By UniProt entry, the sequences of proteins in these tests, tags left out. Where a name states a change or a piece, a line headed by the entry shows the natural chain unless it says otherwise. Residues count along the entry.
UniProt Q8TAA5, 123-142: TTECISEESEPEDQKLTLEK
UniProt Q8TEQ6: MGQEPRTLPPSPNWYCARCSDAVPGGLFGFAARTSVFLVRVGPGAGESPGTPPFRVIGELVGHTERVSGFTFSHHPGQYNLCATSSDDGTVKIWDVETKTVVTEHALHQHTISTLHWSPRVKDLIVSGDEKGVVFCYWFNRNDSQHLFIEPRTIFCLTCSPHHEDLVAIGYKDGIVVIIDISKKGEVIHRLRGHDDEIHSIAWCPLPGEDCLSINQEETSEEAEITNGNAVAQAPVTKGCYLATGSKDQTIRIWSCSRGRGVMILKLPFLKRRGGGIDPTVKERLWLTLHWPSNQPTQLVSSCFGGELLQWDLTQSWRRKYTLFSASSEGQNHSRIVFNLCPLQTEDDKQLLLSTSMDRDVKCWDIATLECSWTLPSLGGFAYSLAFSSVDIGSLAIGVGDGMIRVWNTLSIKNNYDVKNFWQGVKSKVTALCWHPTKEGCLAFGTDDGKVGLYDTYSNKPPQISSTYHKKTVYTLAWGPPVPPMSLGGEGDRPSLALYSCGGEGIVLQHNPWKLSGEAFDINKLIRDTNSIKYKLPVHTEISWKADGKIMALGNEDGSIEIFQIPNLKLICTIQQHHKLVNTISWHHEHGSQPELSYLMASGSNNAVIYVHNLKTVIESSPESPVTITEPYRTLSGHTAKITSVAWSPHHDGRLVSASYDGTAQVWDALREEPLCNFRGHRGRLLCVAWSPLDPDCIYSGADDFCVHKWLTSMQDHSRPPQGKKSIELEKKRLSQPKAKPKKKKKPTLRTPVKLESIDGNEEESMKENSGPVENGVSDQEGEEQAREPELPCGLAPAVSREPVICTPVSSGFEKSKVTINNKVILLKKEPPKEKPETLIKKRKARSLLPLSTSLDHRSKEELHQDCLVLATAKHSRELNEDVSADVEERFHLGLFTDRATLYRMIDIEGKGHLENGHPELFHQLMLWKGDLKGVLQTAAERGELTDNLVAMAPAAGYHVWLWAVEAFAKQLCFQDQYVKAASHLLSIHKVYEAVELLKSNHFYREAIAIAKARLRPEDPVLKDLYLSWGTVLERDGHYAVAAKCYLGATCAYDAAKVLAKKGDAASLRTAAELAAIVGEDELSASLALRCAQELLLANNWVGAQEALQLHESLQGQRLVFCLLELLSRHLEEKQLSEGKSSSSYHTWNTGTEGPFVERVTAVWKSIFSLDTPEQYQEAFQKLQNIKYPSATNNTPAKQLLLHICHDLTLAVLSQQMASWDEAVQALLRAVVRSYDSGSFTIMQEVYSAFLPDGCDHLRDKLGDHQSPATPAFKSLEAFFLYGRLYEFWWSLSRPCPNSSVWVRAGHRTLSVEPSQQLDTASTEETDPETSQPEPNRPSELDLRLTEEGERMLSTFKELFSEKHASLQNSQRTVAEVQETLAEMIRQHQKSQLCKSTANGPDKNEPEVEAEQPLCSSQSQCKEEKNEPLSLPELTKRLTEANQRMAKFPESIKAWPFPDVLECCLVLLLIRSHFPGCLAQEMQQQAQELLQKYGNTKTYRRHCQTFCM
UniProt Q92616, whole entry, looked up: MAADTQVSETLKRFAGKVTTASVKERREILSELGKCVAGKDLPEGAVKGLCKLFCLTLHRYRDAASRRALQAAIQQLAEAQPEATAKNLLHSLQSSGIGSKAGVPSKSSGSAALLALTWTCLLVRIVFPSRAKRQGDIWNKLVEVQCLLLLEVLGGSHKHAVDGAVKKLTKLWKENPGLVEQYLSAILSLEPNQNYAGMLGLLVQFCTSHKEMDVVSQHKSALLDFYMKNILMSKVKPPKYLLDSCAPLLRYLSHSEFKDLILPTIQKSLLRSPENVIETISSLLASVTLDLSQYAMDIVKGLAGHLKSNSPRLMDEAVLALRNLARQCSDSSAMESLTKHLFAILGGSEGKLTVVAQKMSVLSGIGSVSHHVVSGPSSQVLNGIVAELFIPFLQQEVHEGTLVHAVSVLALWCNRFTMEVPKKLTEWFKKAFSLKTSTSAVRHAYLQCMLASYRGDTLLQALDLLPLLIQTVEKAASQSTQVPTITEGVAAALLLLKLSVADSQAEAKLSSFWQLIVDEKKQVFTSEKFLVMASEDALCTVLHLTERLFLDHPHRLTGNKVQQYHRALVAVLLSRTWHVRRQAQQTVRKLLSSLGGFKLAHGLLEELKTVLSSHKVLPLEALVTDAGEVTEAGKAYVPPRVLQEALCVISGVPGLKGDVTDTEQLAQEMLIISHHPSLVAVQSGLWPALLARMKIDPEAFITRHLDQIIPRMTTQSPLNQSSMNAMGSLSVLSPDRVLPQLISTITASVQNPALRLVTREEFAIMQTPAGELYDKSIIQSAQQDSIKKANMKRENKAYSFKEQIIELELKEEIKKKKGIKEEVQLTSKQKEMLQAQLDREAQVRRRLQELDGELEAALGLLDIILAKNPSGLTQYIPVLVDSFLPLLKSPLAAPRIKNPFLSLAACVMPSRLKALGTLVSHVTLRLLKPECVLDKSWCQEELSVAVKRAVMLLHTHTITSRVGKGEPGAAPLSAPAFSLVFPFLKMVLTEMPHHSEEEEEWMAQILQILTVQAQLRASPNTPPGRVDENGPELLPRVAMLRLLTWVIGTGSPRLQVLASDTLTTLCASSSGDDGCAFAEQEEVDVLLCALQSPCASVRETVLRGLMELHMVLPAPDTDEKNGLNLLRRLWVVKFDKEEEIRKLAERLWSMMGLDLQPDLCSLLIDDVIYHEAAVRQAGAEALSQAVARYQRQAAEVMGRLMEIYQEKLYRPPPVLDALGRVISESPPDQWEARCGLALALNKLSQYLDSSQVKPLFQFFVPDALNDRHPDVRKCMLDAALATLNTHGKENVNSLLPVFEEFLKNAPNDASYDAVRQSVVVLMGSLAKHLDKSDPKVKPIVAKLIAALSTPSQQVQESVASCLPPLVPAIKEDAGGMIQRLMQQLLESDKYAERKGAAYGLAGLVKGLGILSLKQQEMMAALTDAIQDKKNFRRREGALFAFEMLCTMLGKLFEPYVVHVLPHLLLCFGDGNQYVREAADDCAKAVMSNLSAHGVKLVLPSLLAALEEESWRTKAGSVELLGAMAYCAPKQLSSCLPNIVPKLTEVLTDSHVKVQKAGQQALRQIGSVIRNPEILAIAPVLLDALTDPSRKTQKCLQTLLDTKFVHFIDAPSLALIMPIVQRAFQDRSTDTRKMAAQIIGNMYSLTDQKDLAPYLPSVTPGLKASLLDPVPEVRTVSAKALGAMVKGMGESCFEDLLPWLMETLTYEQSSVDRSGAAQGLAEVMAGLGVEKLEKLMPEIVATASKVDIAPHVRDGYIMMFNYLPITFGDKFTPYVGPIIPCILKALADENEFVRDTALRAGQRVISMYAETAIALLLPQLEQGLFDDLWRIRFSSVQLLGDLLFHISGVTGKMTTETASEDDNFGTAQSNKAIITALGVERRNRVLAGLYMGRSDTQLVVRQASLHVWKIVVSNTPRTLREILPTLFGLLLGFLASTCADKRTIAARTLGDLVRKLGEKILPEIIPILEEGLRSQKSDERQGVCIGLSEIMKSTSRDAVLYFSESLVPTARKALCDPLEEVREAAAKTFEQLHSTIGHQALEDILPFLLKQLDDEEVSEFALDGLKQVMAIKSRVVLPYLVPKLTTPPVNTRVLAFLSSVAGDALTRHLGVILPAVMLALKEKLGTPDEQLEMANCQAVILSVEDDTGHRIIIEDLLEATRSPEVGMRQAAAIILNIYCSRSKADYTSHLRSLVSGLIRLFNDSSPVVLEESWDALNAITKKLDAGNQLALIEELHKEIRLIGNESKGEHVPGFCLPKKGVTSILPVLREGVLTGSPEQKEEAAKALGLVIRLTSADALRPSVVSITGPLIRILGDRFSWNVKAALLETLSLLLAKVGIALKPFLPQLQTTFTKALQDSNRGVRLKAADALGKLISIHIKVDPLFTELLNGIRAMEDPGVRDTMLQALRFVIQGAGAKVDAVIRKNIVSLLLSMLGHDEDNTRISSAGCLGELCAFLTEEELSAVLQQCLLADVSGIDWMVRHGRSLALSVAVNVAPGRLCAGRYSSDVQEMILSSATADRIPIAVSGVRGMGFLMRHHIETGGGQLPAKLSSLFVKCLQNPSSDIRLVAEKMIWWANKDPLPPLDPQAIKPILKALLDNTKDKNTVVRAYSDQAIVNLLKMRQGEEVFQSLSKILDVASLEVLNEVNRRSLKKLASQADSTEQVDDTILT
UniProt Q4V328: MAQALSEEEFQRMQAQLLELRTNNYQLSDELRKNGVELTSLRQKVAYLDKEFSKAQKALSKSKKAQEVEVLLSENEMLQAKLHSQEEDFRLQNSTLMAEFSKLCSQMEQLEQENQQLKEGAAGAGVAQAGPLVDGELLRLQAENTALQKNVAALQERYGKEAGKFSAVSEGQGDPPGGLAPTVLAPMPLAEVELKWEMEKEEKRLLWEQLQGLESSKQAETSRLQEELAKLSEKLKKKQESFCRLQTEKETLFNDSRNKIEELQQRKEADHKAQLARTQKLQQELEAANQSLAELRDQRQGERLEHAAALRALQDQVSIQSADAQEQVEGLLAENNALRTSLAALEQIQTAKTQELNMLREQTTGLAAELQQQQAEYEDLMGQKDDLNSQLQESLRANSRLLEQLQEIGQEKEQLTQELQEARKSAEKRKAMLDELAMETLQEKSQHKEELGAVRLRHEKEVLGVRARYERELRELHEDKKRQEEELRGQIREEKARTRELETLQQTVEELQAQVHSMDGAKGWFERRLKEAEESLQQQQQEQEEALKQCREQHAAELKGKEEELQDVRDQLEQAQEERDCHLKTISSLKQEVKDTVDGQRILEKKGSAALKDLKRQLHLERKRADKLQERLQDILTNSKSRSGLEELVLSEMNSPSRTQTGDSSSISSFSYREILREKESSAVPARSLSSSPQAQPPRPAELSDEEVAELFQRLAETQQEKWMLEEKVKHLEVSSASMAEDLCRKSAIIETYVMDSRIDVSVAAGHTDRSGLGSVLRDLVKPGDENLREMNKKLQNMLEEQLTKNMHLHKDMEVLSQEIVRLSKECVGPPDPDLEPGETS
UniProt Q9UKJ3, 383-403: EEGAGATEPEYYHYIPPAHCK
UniProt O60443: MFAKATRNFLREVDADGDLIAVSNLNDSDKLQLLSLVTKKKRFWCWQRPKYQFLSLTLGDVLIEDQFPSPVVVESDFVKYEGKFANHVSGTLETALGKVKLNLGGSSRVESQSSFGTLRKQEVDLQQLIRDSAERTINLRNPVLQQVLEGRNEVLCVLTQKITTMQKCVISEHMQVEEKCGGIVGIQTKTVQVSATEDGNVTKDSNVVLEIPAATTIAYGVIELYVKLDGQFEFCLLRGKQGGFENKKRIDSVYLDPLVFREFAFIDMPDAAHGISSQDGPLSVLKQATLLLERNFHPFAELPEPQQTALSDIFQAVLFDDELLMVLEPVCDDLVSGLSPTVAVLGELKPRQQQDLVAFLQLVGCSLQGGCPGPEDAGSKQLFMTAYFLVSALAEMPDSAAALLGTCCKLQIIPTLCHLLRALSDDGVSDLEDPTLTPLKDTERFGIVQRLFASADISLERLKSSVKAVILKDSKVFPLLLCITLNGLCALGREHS
UniProt Q9Y5P6: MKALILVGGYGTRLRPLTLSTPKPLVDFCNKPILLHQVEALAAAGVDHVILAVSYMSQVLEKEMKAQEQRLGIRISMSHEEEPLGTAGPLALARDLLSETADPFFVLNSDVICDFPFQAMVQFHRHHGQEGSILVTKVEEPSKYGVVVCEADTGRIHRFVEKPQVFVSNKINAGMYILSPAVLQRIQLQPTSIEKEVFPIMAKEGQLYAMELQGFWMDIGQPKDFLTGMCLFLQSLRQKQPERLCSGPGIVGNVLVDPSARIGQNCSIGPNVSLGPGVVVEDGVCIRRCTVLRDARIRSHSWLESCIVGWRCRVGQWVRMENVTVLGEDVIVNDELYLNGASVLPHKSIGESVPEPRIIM
UniProt Q49A26, 241-269: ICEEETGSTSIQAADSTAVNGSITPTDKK
UniProt Q9UI32: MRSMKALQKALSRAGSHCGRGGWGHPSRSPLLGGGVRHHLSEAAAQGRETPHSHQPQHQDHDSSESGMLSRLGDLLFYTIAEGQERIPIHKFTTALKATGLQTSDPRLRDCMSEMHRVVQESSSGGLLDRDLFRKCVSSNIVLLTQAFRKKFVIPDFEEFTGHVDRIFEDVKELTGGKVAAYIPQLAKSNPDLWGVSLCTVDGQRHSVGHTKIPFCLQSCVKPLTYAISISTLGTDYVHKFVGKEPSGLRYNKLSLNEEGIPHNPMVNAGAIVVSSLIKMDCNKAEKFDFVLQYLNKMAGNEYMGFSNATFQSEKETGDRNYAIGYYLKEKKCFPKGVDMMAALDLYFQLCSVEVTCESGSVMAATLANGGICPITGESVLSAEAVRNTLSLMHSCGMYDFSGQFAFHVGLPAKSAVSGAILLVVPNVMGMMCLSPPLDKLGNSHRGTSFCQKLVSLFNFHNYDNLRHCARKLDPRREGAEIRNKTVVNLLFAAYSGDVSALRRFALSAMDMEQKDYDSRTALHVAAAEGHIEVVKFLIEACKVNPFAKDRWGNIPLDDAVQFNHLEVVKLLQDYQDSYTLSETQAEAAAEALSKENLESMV

Some of the results follow. The data scatter; read single values as rough.

Compound in the first experiment: ClCC(=O)N[C@@H]1CCCc2ccccc12
The experiment in a line: log2 mean competition ratio of IA-DTB cysteine labelling (DMSO/compound) (log2 ratio); higher = stronger cysteine engagement by compound. The conditions noted are these: 50 µM; treatment time: 4 h; cell line lysate: HEK293T. The method, then:
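IA-DTB competitive cysteine chemoproteomics in HEK293T RIPA lysate. Lysates were treated with compound 29 or 30 at 50 or 200 µM for 4 h, then IA-DTB (500 µM, 1 h), trypsin-digested, NeutrAvidin-enriched and analysed by diaPASEF. Competition ratio = intensity DMSO / intensity compound (n=4 treated, n=64 DMSO); binding: mean log2 CR ≥ 1 and p ≤ 0.05 plus QC filters. Target is the cysteine site.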
On to GREB1 C1202 (UniProt Q4ZG55), for which the “log2 mean competition ratio” value is 0.329.
On the same count and under the same terms, the figure for GRPEL2 C126 (UniProt Q8TAA5) is -0.353; for GEMIN5 C441 (UniProt Q8TEQ6) it is 0.0773.
For GCN1 C648 (UniProt Q92616), the “log2 mean competition ratio” value amounted to 0.322.
Same read-out and setting: next, GRIPAP1 C827 (UniProt Q4V328): -0.129; GBF1 C661 (UniProt Q92538): 0.078.
As to GNPAT C650 (UniProt O15228), the “log2 mean competition ratio” value is -0.262.
Still for that read-out and setting: next, GRPEL2 C87 (UniProt Q8TAA5): 0.0471.
On the same count and under the same terms, next, GCC2 C1306 (UniProt Q8IWJ2): -0.0276; GRHPR C288 (UniProt Q9UBQ7): 0.383; GPATCH8 C402 (UniProt Q9UKJ3): 0.00389.
For GOLIM4 C6, the “log2 mean competition ratio” value is -0.144.
On the same count and under the same terms, next, GGNBP2 C544 (UniProt Q9H3C7): 0.251.
Same read-out and setting: the figure for GCN1 C932 (UniProt Q92616) is -0.14.
For GMPR2 C186 (UniProt Q9P2T1), the “log2 mean competition ratio” value stood at 0.113.
On the same count and under the same terms, next, GPRIN3 C172: 0.686; GHDC C377 (UniProt Q8N2G8): 0.566; GRIPAP1 C744 (UniProt Q4V328): 0.162.
On to GET4 C160 (UniProt Q7L5D6), for which the “log2 mean competition ratio” value is 0.0272.
Still for that read-out and setting: the figure for GGPS1 C138 (UniProt O95749) is 0.142.
For GNB2 C204 (UniProt P62879), the “log2 mean competition ratio” value was -0.0762.
GDI2 C282: the “log2 mean competition ratio” value was found to be 0.151.
Same read-out and setting: the figure for GCFC2 C320 (UniProt P16383) is 0.165; for GPC4 C341 (UniProt O75487) it is -0.0748.
The same measure, in the same setting: next, GSK3A C241 (UniProt P49840): 0.379; GCN1 C2255 (UniProt Q92616): 0.392.
The same measure, in the same setting: next, GRK3 C340 (UniProt P35626): -0.146.
Turning to GSPT2 C582 (UniProt Q8IYD1), the “log2 mean competition ratio” value was -0.199.
The same measure, in the same setting: next, GSDME C180 (UniProt O60443): -0.253.
On to GMPPB C245 (UniProt Q9Y5P6), for which the “log2 mean competition ratio” value was -0.147.
On the same count and under the same terms, the figure for GRWD1 C235 (UniProt Q9BQ67) is -0.118.
Regarding GIT1 C122 (UniProt Q9Y2X7), the “log2 mean competition ratio” value stood at 0.166.
Regarding GPX1 C156 (UniProt P07203), the “log2 mean competition ratio” value was determined as 0.00555.
In the case of GLDC C250 (UniProt P23378), the “log2 mean competition ratio” value came to 0.184.
Same read-out and setting: next, GIGYF2 C573 (UniProt Q6Y7W6): -0.0304.
Same read-out and setting: next, GLYR1 C242 (UniProt Q49A26): -0.34; GLS2 C542 (UniProt Q9UI32): 0.413.

The same experiment, now with this note: 200 µM; treatment time: 4 h; cell line lysate: HEK293T.
On to GREB1 C1202 (UniProt Q4ZG55), for which the “log2 mean competition ratio” value worked out at 0.0429.
Same read-out and setting: next, GRPEL2 C126 (UniProt Q8TAA5): -0.0748; GEMIN5 C441 (UniProt Q8TEQ6): -0.296; GCN1 C648 (UniProt Q92616): 0.0263.
As for GRIPAP1 C827 (UniProt Q4V328), the “log2 mean competition ratio” value is -0.101.
With GBF1 C661 (UniProt Q92538), the “log2 mean competition ratio” value stood at 0.00579.
Take GNPAT C650 (UniProt O15228): the “log2 mean competition ratio” value is -0.277.
The same measure, in the same setting: next, GRPEL2 C87 (UniProt Q8TAA5): 0.0162.
Still for that read-out and setting: next, GCC2 C1306 (UniProt Q8IWJ2): 0.108; GRHPR C288 (UniProt Q9UBQ7): 0.166.
On the same count and under the same terms, next, GPATCH8 C402 (UniProt Q9UKJ3): 0.183.
Take GOLIM4 C6: the “log2 mean competition ratio” value is 0.101.
In the case of GGNBP2 C544 (UniProt Q9H3C7), the “log2 mean competition ratio” value came to 0.0382.
Take GCN1 C932 (UniProt Q92616): the “log2 mean competition ratio” value was found to be 0.476.
As to GMPR2 C186 (UniProt Q9P2T1), the “log2 mean competition ratio” value was -0.159.
Still for that read-out and setting: the figure for GPRIN3 C172 is 0.4; for GHDC C377 (UniProt Q8N2G8) it is 0.22; for GRIPAP1 C744 (UniProt Q4V328) it is -0.0969.
Still for that read-out and setting: next, GET4 C160 (UniProt Q7L5D6): -0.305; GGPS1 C138 (UniProt O95749): -0.38.
As to GNB2 C204 (UniProt P62879), the “log2 mean competition ratio” value is -0.141.
GDI2 C282: the “log2 mean competition ratio” value was found to be 0.26.
The same measure, in the same setting: the figure for GCFC2 C320 (UniProt P16383) is 0.464.
Still for that read-out and setting: the figure for GPC4 C341 (UniProt O75487) is 0.0206.
The same measure, in the same setting: next, GSK3A C241 (UniProt P49840): -0.0684; GCN1 C2255 (UniProt Q92616): -0.0331; GRK3 C340 (UniProt P35626): -0.105.
Regarding GSPT2 C582 (UniProt Q8IYD1), the “log2 mean competition ratio” value is -0.275.
On the same count and under the same terms, next, GSDME C180 (UniProt O60443): -0.215; GMPPB C245 (UniProt Q9Y5P6): 0.317.
The same measure, in the same setting: the figure for GRWD1 C235 (UniProt Q9BQ67) is 0.291.
Regarding GIT1 C122 (UniProt Q9Y2X7), the “log2 mean competition ratio” value was determined as 0.486.
Turning to GPX1 C156 (UniProt P07203), the “log2 mean competition ratio” value is -0.422.
On the same count and under the same terms, next, GLDC C250 (UniProt P23378): 0.19; GIGYF2 C573 (UniProt Q6Y7W6): -0.0795.
Still for that read-out and setting: the figure for GLYR1 C242 (UniProt Q49A26) is -0.0773; for GLS2 C542 (UniProt Q9UI32) it is 0.101.
